Results as given in the supplement of paper PMC12578635.
± gives the standard deviation of the averaged measurements. Some of the results follow. Most values come without repeats; read them as rough.

What follows are compounds tested on RAW 264.7 macrophages infected with S. aureus JE2-lux (assay: host macrophage viability (CellTiter-Fluor) relative to DMSO vehicle; higher = more viable host cells). Conditions: 10 µM; treatment time 4 h; gentamicin 50 µg/ml.

Structure (SMILES)	host macrophage viability
O=C(CCS(=O)(=O)c1ccc(F)cc1)Nc1ncc(S(=O)(=O)c2ccc([N+](=O)[O-])cc2)s1	93.2%
COc1cc(NC(=O)c2cccc3nccnc23)ccc1NC(=O)C1CCCCC1	117%
Clc1ccc(-n2cc(-c3ccccc3)c3c(NCCCn4ccnc4)ncnc32)cc1	117%
COc1ccccc1OCC(=O)N1c2ccccc2CC1C(N)=O (stereo not given)	120%
Cn1c(=O)c2c(SCC(=O)Nc3cccc(F)c3)nc(-c3ccc([N+](=O)[O-])cc3)nc2n(C)c1=O	112.4 ± 0.91%
CC(C)NC(=O)c1ccc(-c2ccc(F)cc2)nc1	99.8%
Cc1ccc(OCC(O)Cn2c(N(C)Cc3ccccc3)nc3c2c(=O)[nH]c(=O)n3C)cc1C (stereo not given)	141%
CC1(C)COc2ccc(NC(=O)CCc3ccccc3)cc2NC1=O	120%
COc1cccc(NC(=O)c2cnc(-c3ccc(C)cc3)nc2C)c1	102%
Nc1c(-c2nc(-c3ccc(Br)cc3)cs2)c2ccccn2c1C(=O)c1cccs1	112%
N#CC1=C(SCC(=O)N(c2ccccc2)c2ccccc2)NC(=O)CC1c1ccco1 (stereo not given)	119%
C#CCSc1nc2ccccc2n1C(=O)c1ccc(S(=O)(=O)N2CCOCC2)cc1	99%
O=C1c2ccccc2C(=O)c2cc(S(=O)(=O)Nc3ccncc3)ccc21	120%
CCOc1ccc2nc(NC(=O)c3cc4c(=O)n5cccc(C)c5nc4s3)sc2c1	103%
COC(=O)c1sc2ccccc2c1NC(=O)COc1ccc(Cl)cc1Cl	111 ± 8.7%
COc1ccccc1NC(=O)Cn1c(C)nc2ccc(NC(=O)c3ccccc3)cc2c1=O	96%
CCCc1cc(=O)[nH]c2nnc(SCc3cccc([N+](=O)[O-])c3)n12	96.3%
O=C(Nc1nc2c(s1)CCc1ccccc1-2)c1ccc(N2C(=O)CCC2=O)cc1	106%
CCC(C)Nc1nc2c(C)cccn2c(=O)c1/C=N/c1ccc([N+](=O)[O-])cc1Cl (stereo not given)	126%
Cc1cc(C)cc(-n2c(SCC(=O)Nc3ccc(C(N)=O)cc3)nc3c(c2=O)SCC3)c1	111%
O=C1N=C(N2CCN(c3ccccc3)CC2)S/C1=C/c1ccc(O)cc1	117 ± 6.7%
Oc1ccc(-c2n[nH]cc2-c2nc3ccccc3s2)c(O)c1	129%
CCOC(=O)c1c(-c2ccc(OC)cc2)csc1NC(=O)CSc1nnc2ccccn12	128%
COc1ccc(Cl)c2sc(N(Cc3cccnc3)C(=O)c3cccc(S(C)(=O)=O)c3)nc12	122%
Cc1n[nH]c2c1C1(C(=O)Nc3ccccc31)C(C#N)=C(N)O2 (stereo not given)	116%

2 records picked at random from those above, as already listed:
Structure (SMILES)	host macrophage viability
CCOC(=O)c1c(-c2ccc(OC)cc2)csc1NC(=O)CSc1nnc2ccccn12	128%
Clc1ccc(-n2cc(-c3ccccc3)c3c(NCCCn4ccnc4)ncnc32)cc1	117%

Remaining list, next part:

Structure (SMILES)	host macrophage viability
CCc1cccc(C)c1NC(=O)C1CCCN1C(=O)Nc1ccc(C)cc1 (stereo not given)	116%
Cc1nc2c(ccc3nc(NC(=O)c4ccccc4I)sc32)s1	117 ± 12%
CNC(=O)c1ccsc1NC(=O)c1ccc(S(=O)(=O)N(C)C)cc1	109%
Nc1ncnc(Sc2ccc(Cl)cc2)c1[N+](=O)[O-]	99.7%
Cc1ccc(S(=O)(=O)c2nc(/C(C#N)=C\c3ccccc3)sc2Cl)cc1	134%
Cc1ccc(C)c2[nH]c(=O)c(CCNC(=O)c3ccc([N+](=O)[O-])cc3)cc12	103%
COC(=O)c1ccc(C(=O)Nc2ccc3nc(SC)sc3c2)cc1	98.6 ± 10%
COc1ccc(Cl)c2sc(N3CCN(C(=O)C4COc5ccccc5O4)CC3)nc12 (stereo not given)	115%
Cn1nc(C(=O)N2CCOCC2)c2c1CCN(S(=O)(=O)c1cccc3nsnc13)C2	123%
O=C(Nc1ccc2c(c1)C(=O)NC2=O)c1ccc(-c2nc3ccccc3s2)s1	131%
CCOC(=O)CCc1c(C)[nH]c2nc(CO)nn2c1=O	87.8%
Cc1c(C)n2c(SCc3ccc(C(F)(F)F)cc3)nnc2[nH]c1=O	113%
O=C(Nc1cccc(I)c1)/C(O)=C1\C(=O)Nc2ccccc21	114 ± 2.3%
O=C1C2C3CC(C2C(=O)N1c1ccccc1)C1C(c2ccc(O)cc2)c2sc(=O)[nH]c2SC31 (stereo not given)	120%
CCOC(=O)C1CCN(S(=O)(=O)CCNC(=O)c2ccc3c(c2)OCO3)CC1	125%
O=C(CC1Nc2ccccc2NC1=O)Nc1cccc(C(=O)O)c1 (stereo not given)	109%
O=C(CSc1nc2ccccc2o1)OCC(=O)c1ccc(F)cc1	109 ± 7.5%
COc1ccc2nc(NC(=O)Cn3c(=O)c4cnc(-c5ccccc5)nc4n(C)c3=O)sc2c1	133%
C=CCn1c(SCC(=O)Nc2ccc3c(c2)OCCO3)nc2scc(-c3ccco3)c2c1=O	100%
O=C(CC(C(=O)O)N1CCNCC1)Nc1ccc(Br)cc1 (stereo not given)	116%
CCc1ccc(NC(=O)CS(=O)CC(=O)Nc2ccc(-n3cnnn3)c(C)c2)cc1 (stereo not given)	101%
COc1ccc(C(=O)CSc2nc(=O)n(Cc3cccnc3)c3c2CCC3)cc1	122%
COc1cccc(C(=O)CC2(O)C(=O)Nc3c(C)cccc32)c1 (stereo not given)	97.4%
CCn1c(=O)c(N2CCN(C(=O)c3ccc(F)c(Cl)c3)CC2)c(C)n(-c2ccccc2)c1=O	112%
COc1cc(/C=N/Nc2ncnc3[nH]cnc23)cc(OC)c1OC	93.7%

Structure (SMILES)	host macrophage viability
NS(=O)(=O)c1ccc(CCNC(=O)C(=O)Nc2cc3c4c(c2)CC(=O)N4CCC3)cc1	118%
Cc1nc2c(C)cccc2cc1C(=O)Nc1cccc(C(=O)N2CCCCC2)c1	121%
C#CCn1/c(=N/C(=O)CCCC)sc2cc(S(N)(=O)=O)ccc21	98.1%
O=C(NCc1cccnc1)c1cnc2n(c1=O)CCS2	130%
COC(=O)Cn1/c(=N/C(=O)c2ccccc2C)sc2cc(S(C)(=O)=O)ccc21	117%
O=C(CSc1ccc([N+](=O)[O-])cc1[N+](=O)[O-])NC1CCS(=O)(=O)C1 (stereo not given)	109%
CC(C)c1cc(C(=O)N2CCc3ccccc32)nn1C1CCS(=O)(=O)C1 (stereo not given)	117%
N#C/C(=C\c1c[nH]c2ccc(Br)cc12)C(=O)N1CCOCC1	94.3%
Cn1c(=O)[nH]c(=O)c2[nH]c(CN(Cc3ccccc3)Cc3ccccc3)nc21	119%
COc1ccc(C2C3=C(CC(C)(C)CC3=O)Nc3nc(SC(C)C)[nH]c(=O)c32)cc1 (stereo not given)	128%
O=C(/C=C/c1ccccc1)NN1C(=O)c2ccccc2C1=O	110%
O=C(CSc1nnc(-c2ccccc2)c(-c2ccccc2)n1)Nc1nccs1	109%
CCOC(=O)c1[nH]c2ccccc2c1NC(=S)Nc1cccc(Cl)c1C	112%
CCOC(=O)Cc1csc(NC(=O)CSc2nc(=O)[nH]c3c2CCCC3)n1	105%
COc1cccc2sc(Nc3ccccc3)nc12	109 ± 8.2%
O=C(c1noc2ccc(S(=O)(=O)N3CCC(Cc4ccccc4)CC3)cc12)N1CCCC1	96.1%
O=C(CSc1nc(O)c2c(n1)CCC2)Nc1cccc2ccccc12	111%
CCNc1nc(C(N)=O)c(NC(=O)c2cc(-c3ccc(OC)cc3)nc3ccccc23)s1	121%
N#C/C(=C\Nc1ccc2c(c1)OCO2)c1nc(-c2ccc([N+](=O)[O-])cc2)cs1	112 ± 12%
Cn1c(=O)c(C(=O)NCCc2c[nH]c3ccccc23)cc2cccnc21	103%
CCOC(=O)Cc1ccc(NC(=O)N2CCc3c(c(C(=O)N4CCCCC4)nn3C)C2)cc1	125%
O=C(Cc1csc2nc(-c3ccc(F)cc3)cn12)NCc1ccc(F)cc1	113%
O=C(C1CCN(c2nccnc2Oc2ccccc2)CC1)N1CCN(c2cccc(Cl)c2)CC1	118%
CCN(CC(O)Cn1c2ccccc2c2ccccc21)S(=O)(=O)c1ccc(F)cc1 (stereo not given)	105%
COc1ccc(OC)c(S(=O)(=O)NCCc2sc(-c3ccc(F)cc3)nc2C)c1	117%

Structure (SMILES)	host macrophage viability
Cc1cc(C(=O)NC2CCCOC2)c2cccc(Cl)c2n1 (stereo not given)	106%
Cc1ccc(S(=O)(=O)Nc2ccccc2C(=O)Nc2c(C(N)=O)oc3ccccc23)cc1	118 ± 14%
COc1ccc(Nc2ncnc3scc(-c4ccc(Cl)cc4)c23)c(OC)c1	132%
O=C(Nc1ccc(SCc2nnc(-c3ccccc3)o2)cc1)C1CC1	121%
Cc1c(-c2ccccc2)n[nH]c1C(=O)NC(c1ccccc1)c1ccnn1C (stereo not given)	104%
Cc1nn(-c2nc3ccccc3[nH]2)c2c1C(c1ccc([N+](=O)[O-])s1)CC(=O)N2 (stereo not given)	117%
CCOC(=O)c1ccccc1NC(=O)CC1S/C(=N/C)N(C)C1=O (stereo not given)	102%
CCc1ccc2[nH]c3nc(SCC(=O)Nc4nnc(C(C)C)s4)nnc3c2c1	109%
COc1cccc(OC(=O)c2cc3c(-c4ccccc4F)nn(C)c3s2)c1	91.6%
CC(C)N1C(=O)/C(=C2/C(=O)N(CC(N)=O)c3ccccc32)SC1=S	91%
CC(=O)c1ccc(-n2nnnc2SCC(=O)c2ccc3c(c2)OCCO3)cc1	103%
CC(C)N1C(=O)c2ccccc2Sc2cc(NC(=O)c3cncc(Br)c3)ccc21	119%
COc1ccc(NC(=O)Cn2c(=O)c3cc(Cl)ccc3n3nncc23)cc1	124%
CCCCc1c(C)nn(-c2nc(C)c(C(=O)Nc3cccc(C)c3C)s2)c1O	105%
CC(C)(C)NC(=O)c1cccc2c1-c1ccccc1C2=O	111%
CCc1cccc(NC(=O)c2nn(C)c(C(F)(F)F)c2Cl)c1	120%
O=C(CSc1ncnc2nc[nH]c12)N1CCN(Cc2ccc3c(c2)OCO3)CC1	125%
CCOc1ccccc1/C=N/NC(=O)c1n[nH]c2c1CCC2	90.9%
Cc1cccc(C(c2sc3nc(C)nn3c2O)N2CCCC2)c1 (stereo not given)	120%
CC1CCc2c(sc3ncnc(NCCN4CCOCC4)c23)C1 (stereo not given)	105%
CCN(C(=O)C1CCCCC1)c1nc2c(s1)CCc1oc(C)cc1-2	106%
COc1ccc(NC(=O)CSc2nc3ccccc3o2)cc1	112%
Cc1ccc(C2=NS(=O)(=O)N(C)C(C(=O)Nc3cc(C)n(CC(=O)Nc4cccnc4)n3)=C2)cc1	103%
Cc1c(C(=O)Oc2cc(N)n(S(C)(=O)=O)n2)cccc1[N+](=O)[O-]	126%
CCC(=O)Nc1ccc(N2C(=O)CS/C2=N\NC(=O)c2ccc(O)cc2)cc1	111%

A stretch of the results above, for reference:
Structure (SMILES)	host macrophage viability
O=C(CSc1ncnc2nc[nH]c12)N1CCN(Cc2ccc3c(c2)OCO3)CC1	125%
CCOc1ccccc1/C=N/NC(=O)c1n[nH]c2c1CCC2	90.9%
